In patent publication US20140302020A1:
Results are given in words; binding and its absence hold for the method and conditions named. Some binding calls cover weakened binding; strength is not graded here.

Amino acid sequences for entries named in this document (tags omitted). Residues count along the entry.
UniProt Q06890, residues 22-448: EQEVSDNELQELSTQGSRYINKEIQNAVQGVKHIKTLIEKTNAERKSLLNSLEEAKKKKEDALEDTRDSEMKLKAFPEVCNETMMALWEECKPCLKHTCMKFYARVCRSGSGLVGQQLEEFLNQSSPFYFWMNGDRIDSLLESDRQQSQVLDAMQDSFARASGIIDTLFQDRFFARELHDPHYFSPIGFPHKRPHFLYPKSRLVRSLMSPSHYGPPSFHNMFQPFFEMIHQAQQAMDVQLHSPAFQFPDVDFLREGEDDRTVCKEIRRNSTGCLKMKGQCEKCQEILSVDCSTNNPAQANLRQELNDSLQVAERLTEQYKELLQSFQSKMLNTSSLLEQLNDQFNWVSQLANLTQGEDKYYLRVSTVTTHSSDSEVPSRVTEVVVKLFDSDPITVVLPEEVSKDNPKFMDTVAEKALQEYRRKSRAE
UniProt P10909, residues 23-449: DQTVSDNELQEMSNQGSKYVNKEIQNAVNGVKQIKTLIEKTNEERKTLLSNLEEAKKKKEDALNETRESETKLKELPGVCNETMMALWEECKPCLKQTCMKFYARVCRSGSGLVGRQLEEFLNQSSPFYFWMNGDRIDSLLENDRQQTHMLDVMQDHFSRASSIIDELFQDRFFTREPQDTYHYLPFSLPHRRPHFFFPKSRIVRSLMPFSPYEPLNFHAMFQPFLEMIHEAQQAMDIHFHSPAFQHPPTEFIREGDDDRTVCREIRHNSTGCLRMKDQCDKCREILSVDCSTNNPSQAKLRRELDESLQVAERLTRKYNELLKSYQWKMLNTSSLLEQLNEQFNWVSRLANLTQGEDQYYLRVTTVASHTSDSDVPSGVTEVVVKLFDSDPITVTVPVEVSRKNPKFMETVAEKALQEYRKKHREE

Assays:
[1] = target: murine clusterin (murine) (UniProt Q06890); assay: immunohistochemistry, HRP-conjugated secondary antibody
[2] = target: murine clusterin (murine) (UniProt Q06890); assay: immunofluorescence on BRI-JM01 mouse mammary carcinoma cells
[3] = target: murine clusterin (murine) (UniProt Q06890); assay: immunohistochemistry with h16B5 at 5 µg/ml on fixed frozen sections of 4T1 mouse mammary tumors
[4] = target: recombinant monomeric human clusterin (human) (UniProt P10909); assay: SPR (BIAcore 3000), clusterin amine-coupled on a CM3 chip, full length antibody injected at 1.953-31.25 nM
[5] = target: human clusterin expressed or secreted by human tumour cells (human) (UniProt P10909); assay: immunohistochemistry with h16B5 at 5 µg/ml on paraffin sections of Aspc-1, BxPC-3, PANC-1 and MiaPaCa-2 tumors

binding [1]: binds
binding [2]: binds
binding [3]: binds
binding [4]: binds
binding [5]: binds
B1: humanized 16B5 anti-clusterin antibody (full length, human IgG2) (antibody, V domains shown)
VH: QVQLVQSGAEVKKPGATVKISCKVSGFNIKDIYMHWVQQAPGKGLEWMGRIDPAYGNTKYDPKFQGRVTITADTSTDTAYMELSSLRSEDTAVYYCARRYDTAMDYWGQGTLVTVSS
VL: DIVMTQSPDSLAVSLGERATINCKSSQSLLNSRTRKNYLAWYQQKPGQPPKLLIYWASTRESGVPDRFSGSGSGTDFTLTISSLQAEDVAVYYCKQSYNLWTFGQGTKLEIKV
